Data published in the supplement of paper PMC4604168 (melanoma cell lines).
This is one part of the list. Single values are uncertain, as repeats are few or missing.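 Imaging used 1,536-well plates; nuclei positive for cleaved PARP by antibody were divided by total DNA-stained nuclei to yield the apoptosis fraction. Doses for screening kept most cells viable, and cell lines differ markedly in resting and induced cleaved-PARP levels.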

What was measured:
Experiment in all cases: cleaved PARP positive nuclei fraction relative to DMSO control; melanoma cells; higher = more apoptosis
Details in all cases: library dose: low library concentration; 72 h
MZ2-MEL = system: MZ2-MEL
MeWo = system: MeWo
RPMI7951 = system: RPMI7951
RVH-421 = system: RVH-421
SkMel28 = system: SkMel28
SkMel2 = system: SkMel2
SkMel30 = system: SkMel30
UACC62 = system: UACC62

Q: For `N.N.[Cl][Pt][Cl]` [cisplatin] + Nc1ccn([C@@H]2O[C@H](CO)[C@@H](O)C2(F)F)c(=O)n1 [gemcitabine] (first compound 1.6 µM, partner dose 0.0004 µM), which “cleaved PARP positive nuclei fraction” value (MZ2-MEL) is on record?
A: The value was 80.4%.

Q: What about the “cleaved PARP positive nuclei fraction” value (MeWo) of the same compound?
A: Its value is 92.1%.

Q: What about the “cleaved PARP positive nuclei fraction” value (RPMI7951) of the same compound?
A: Its value is 75.3%.

Q: What about the “cleaved PARP positive nuclei fraction” value (RVH-421) of the same compound?
A: Its value is 182%.

Q: And the “cleaved PARP positive nuclei fraction” value (SkMel28)?
A: The value was 87.9%.

Q: What about the “cleaved PARP positive nuclei fraction” value (SkMel2) of the same compound?
A: The value was 54.3%.

Q: What about the “cleaved PARP positive nuclei fraction” value (SkMel30) of the same compound?
A: Its value is 90.7%.

Q: What about the “cleaved PARP positive nuclei fraction” value (UACC62) of the same compound?
A: The value was 36.3%.

Q: For `Cn1cc(C2=C(c3cn(C4CCN(Cc5ccccn5)CC4)c4ccccc34)C(=O)NC2=O)c2ccccc21` [Enzastaurin] + Cc1cc(Nc2cc(N3CCN(C)CC3)nc(/C=C/c3ccccc3)n2)n[nH]1 [ENMD2076] (first compound 0.8 µM, partner dose 0.04 µM), which “cleaved PARP positive nuclei fraction” value (MZ2-MEL) is on record?
A: Its value is 20.6%.

Q: And the “cleaved PARP positive nuclei fraction” value (MeWo)?
A: The value was 93.3%.

Q: And the “cleaved PARP positive nuclei fraction” value (RPMI7951)?
A: Its value is 115%.

Q: What about the “cleaved PARP positive nuclei fraction” value (RVH-421) of the same compound?
A: The value was 1030%.

Q: And the “cleaved PARP positive nuclei fraction” value (SkMel28)?
A: The value was 82.9%.

Q: What about the “cleaved PARP positive nuclei fraction” value (SkMel2) of the same compound?
A: The value was 22.3%.

Q: What about the “cleaved PARP positive nuclei fraction” value (SkMel30) of the same compound?
A: The value was 68.3%.

Q: What about the “cleaved PARP positive nuclei fraction” value (UACC62) of the same compound?
A: Its value is 96.6%.

Q: How did the “cleaved PARP positive nuclei fraction” value (MZ2-MEL) turn out when `C#Cc1cccc(Nc2ncnc3cc(OCCOC)c(OCCOC)cc23)c1` [erlotinib] + C[As](C)SC[C@H](NC(=O)CC[C@H](N)C(=O)O)C(=O)NCC(=O)O [Darinaparsin] (first compound 0.8 µM, partner dose 0.4 µM) was run?
A: The value was 26.8%.

Q: What about the “cleaved PARP positive nuclei fraction” value (MeWo) of the same compound?
A: The value was 143%.

Q: And the “cleaved PARP positive nuclei fraction” value (RPMI7951)?
A: The value was 63.2%.

Q: And the “cleaved PARP positive nuclei fraction” value (RVH-421)?
A: Its value is 53.3%.

Q: And the “cleaved PARP positive nuclei fraction” value (SkMel28)?
A: Its value is 286%.

Q: What about the “cleaved PARP positive nuclei fraction” value (SkMel2) of the same compound?
A: The value was 97.5%.

Q: What about the “cleaved PARP positive nuclei fraction” value (SkMel30) of the same compound?
A: The value was 133%.

Q: And the “cleaved PARP positive nuclei fraction” value (UACC62)?
A: The value was 94.8%.

Q: Which results are given for `Cn1cc(C2=C(c3cn(C4CCN(Cc5ccccn5)CC4)c4ccccc34)C(=O)NC2=O)c2ccccc21` [Enzastaurin] + CS(=O)(=O)c1ccc(C(=O)Nc2ccc(Cl)c(-c3ccccn3)c2)c(Cl)c1 [vismodegib] (first compound 0.8 µM, partner dose 1 µM)?
A: cleaved PARP positive nuclei fraction (MZ2-MEL): 211%; cleaved PARP positive nuclei fraction (MeWo): 59%; cleaved PARP positive nuclei fraction (RPMI7951): 32.3%; cleaved PARP positive nuclei fraction (RVH-421): 93.9%; cleaved PARP positive nuclei fraction (SkMel28): 34.7%; cleaved PARP positive nuclei fraction (SkMel2): 195%; cleaved PARP positive nuclei fraction (SkMel30): 30.7%; cleaved PARP positive nuclei fraction (UACC62): 41.9%

Q: For `COc1ccc(C2=N[C@@H](c3ccc(Cl)cc3)[C@@H](c3ccc(Cl)cc3)N2C(=O)N2CCNC(=O)C2)c(OC(C)C)c1` [Nutlin-3] + N.N.[Cl][Pt][Cl] [cisplatin] (first compound 0.1 µM, partner dose 1.6 µM), which “cleaved PARP positive nuclei fraction” value (MZ2-MEL) is on record?
A: Its value is 105%.

Q: What about the “cleaved PARP positive nuclei fraction” value (MeWo) of the same compound?
A: The value was 123%.

Q: What about the “cleaved PARP positive nuclei fraction” value (RPMI7951) of the same compound?
A: The value was 101%.

Q: What about the “cleaved PARP positive nuclei fraction” value (RVH-421) of the same compound?
A: The value was 180%.

Q: What about the “cleaved PARP positive nuclei fraction” value (SkMel28) of the same compound?
A: Its value is 51.8%.

Q: And the “cleaved PARP positive nuclei fraction” value (SkMel2)?
A: The value was 15.8%.

Q: What about the “cleaved PARP positive nuclei fraction” value (SkMel30) of the same compound?
A: Its value is 105%.

Q: And the “cleaved PARP positive nuclei fraction” value (UACC62)?
A: Its value is 232%.

Q: For `Cc1ccc(Nc2nccc(N(C)c3ccc4c(C)n(C)nc4c3)n2)cc1S(N)(=O)=O` [Pazopanib] + N.N.[Cl][Pt][Cl] [cisplatin] (first compound 0.4 µM, partner dose 1.6 µM), which “cleaved PARP positive nuclei fraction” value (MZ2-MEL) is on record?
A: The value was 108%.

Q: And the “cleaved PARP positive nuclei fraction” value (MeWo)?
A: Its value is 195%.

Q: What about the “cleaved PARP positive nuclei fraction” value (RPMI7951) of the same compound?
A: The value was 32.5%.

Q: What about the “cleaved PARP positive nuclei fraction” value (RVH-421) of the same compound?
A: Its value is 97.4%.

Q: What about the “cleaved PARP positive nuclei fraction” value (SkMel28) of the same compound?
A: Its value is 75.3%.

Q: And the “cleaved PARP positive nuclei fraction” value (SkMel2)?
A: The value was 46.7%.

Q: What about the “cleaved PARP positive nuclei fraction” value (SkMel30) of the same compound?
A: The value was 58.5%.

Q: What about the “cleaved PARP positive nuclei fraction” value (UACC62) of the same compound?
A: The value was 25%.

Q: Which “cleaved PARP positive nuclei fraction” value (MZ2-MEL) does the source give for `N.N.[Cl][Pt][Cl]` [cisplatin] + C#Cc1cccc(Nc2ncnc3cc(OCCOC)c(OCCOC)cc23)c1 [erlotinib] (first compound 1.6 µM, partner dose 0.8 µM) here?
A: The value was 129%.

Q: What about the “cleaved PARP positive nuclei fraction” value (MeWo) of the same compound?
A: Its value is 112%.

Q: And the “cleaved PARP positive nuclei fraction” value (RPMI7951)?
A: The value was 38.1%.

Q: What about the “cleaved PARP positive nuclei fraction” value (RVH-421) of the same compound?
A: Its value is 62%.

Q: And the “cleaved PARP positive nuclei fraction” value (SkMel28)?
A: The value was 76.9%.

Q: And the “cleaved PARP positive nuclei fraction” value (SkMel2)?
A: The value was 70.8%.

Q: What about the “cleaved PARP positive nuclei fraction” value (SkMel30) of the same compound?
A: The value was 23.1%.

Q: And the “cleaved PARP positive nuclei fraction” value (UACC62)?
A: The value was 156%.

Q: For `Cn1cc(C2=C(c3cn(C4CCN(Cc5ccccn5)CC4)c4ccccc34)C(=O)NC2=O)c2ccccc21` [Enzastaurin] + C=CCNC1=C2C[C@@H](C)C[C@H](OC)[C@H](O)[C@@H](C)/C=C(\C)[C@H](OC(N)=O)[C@@H](OC)/C=C\C=C(/C)C(=O)NC(=CC1=O)C2=O [Tanespimycin] (first compound 0.8 µM, partner dose 0.002 µM), which “cleaved PARP positive nuclei fraction” value (MZ2-MEL) is on record?
A: The value was 66.5%.

Q: What about the “cleaved PARP positive nuclei fraction” value (MeWo) of the same compound?
A: The value was 38.2%.

Q: What about the “cleaved PARP positive nuclei fraction” value (RPMI7951) of the same compound?
A: The value was 176%.

Q: What about the “cleaved PARP positive nuclei fraction” value (RVH-421) of the same compound?
A: Its value is 96.2%.

Q: And the “cleaved PARP positive nuclei fraction” value (SkMel28)?
A: Its value is 46.5%.

Q: What about the “cleaved PARP positive nuclei fraction” value (SkMel2) of the same compound?
A: The value was 64.9%.

Q: What about the “cleaved PARP positive nuclei fraction” value (SkMel30) of the same compound?
A: Its value is 110%.

Q: And the “cleaved PARP positive nuclei fraction” value (UACC62)?
A: The value was 84.5%.

Q: How did the “cleaved PARP positive nuclei fraction” value (MZ2-MEL) turn out when `CC1(C)CCC(c2ccc(Cl)cc2)=C(CN2CCN(c3ccc(C(=O)NS(=O)(=O)c4ccc(N[C@H](CCN5CCOCC5)CSc5ccccc5)c(S(=O)(=O)C(F)(F)F)c4)cc3)CC2)C1` + C[As](C)SC[C@H](NC(=O)CC[C@H](N)C(=O)O)C(=O)NCC(=O)O [Darinaparsin] (first compound 0.4 µM, partner dose 0.4 µM) was run?
A: Its value is 122%.

Q: What about the “cleaved PARP positive nuclei fraction” value (MeWo) of the same compound?
A: Its value is 511%.

Q: And the “cleaved PARP positive nuclei fraction” value (RPMI7951)?
A: Its value is 74.3%.

Q: And the “cleaved PARP positive nuclei fraction” value (RVH-421)?
A: The value was 188%.

Q: What about the “cleaved PARP positive nuclei fraction” value (SkMel28) of the same compound?
A: Its value is 41.9%.

Q: And the “cleaved PARP positive nuclei fraction” value (SkMel2)?
A: Its value is 138%.

Q: What about the “cleaved PARP positive nuclei fraction” value (SkMel30) of the same compound?
A: The value was 52.4%.

Q: And the “cleaved PARP positive nuclei fraction” value (UACC62)?
A: Its value is 92.5%.

Q: `N.N.[Cl][Pt][Cl]` [cisplatin] + Cn1c(Nc2ccc(C(F)(F)F)cc2)nc2cc(Oc3ccnc(-c4ncc(C(F)(F)F)[nH]4)c3)ccc21 [CHIR265] (first compound 1.6 µM, partner dose 0.08 µM) was tested. Which “cleaved PARP positive nuclei fraction” value (MZ2-MEL) did it give?
A: The value was 96.2%.

Q: And the “cleaved PARP positive nuclei fraction” value (MeWo)?
A: The value was 22.4%.

Q: And the “cleaved PARP positive nuclei fraction” value (RPMI7951)?
A: Its value is 71.4%.

Q: And the “cleaved PARP positive nuclei fraction” value (RVH-421)?
A: The value was 127%.

Q: And the “cleaved PARP positive nuclei fraction” value (SkMel28)?
A: The value was 76%.

Q: And the “cleaved PARP positive nuclei fraction” value (SkMel2)?
A: Its value is 18.6%.

Q: What about the “cleaved PARP positive nuclei fraction” value (SkMel30) of the same compound?
A: Its value is 56.2%.

Q: And the “cleaved PARP positive nuclei fraction” value (UACC62)?
A: The value was 96.7%.

Q: How did the “cleaved PARP positive nuclei fraction” value (MZ2-MEL) turn out when `C[C@]1(O)C[C@@H](c2nc(-c3ccc4ccc(-c5ccccc5)nc4c3)c3c(N)nccn32)C1` + C[As](C)SC[C@H](NC(=O)CC[C@H](N)C(=O)O)C(=O)NCC(=O)O [Darinaparsin] (first compound 0.4 µM, partner dose 0.4 µM) was run?
A: The value was 104%.

Q: And the “cleaved PARP positive nuclei fraction” value (MeWo)?
A: Its value is 121%.

Q: What about the “cleaved PARP positive nuclei fraction” value (RPMI7951) of the same compound?
A: The value was 93.7%.

Q: And the “cleaved PARP positive nuclei fraction” value (RVH-421)?
A: The value was 137%.

Q: What about the “cleaved PARP positive nuclei fraction” value (SkMel28) of the same compound?
A: The value was 80.7%.

Q: What about the “cleaved PARP positive nuclei fraction” value (SkMel2) of the same compound?
A: The value was 160%.

Q: What about the “cleaved PARP positive nuclei fraction” value (SkMel30) of the same compound?
A: Its value is 253%.

Q: And the “cleaved PARP positive nuclei fraction” value (UACC62)?
A: The value was 42.2%.

Q: For `NC(=O)c1ccc(N(C(N)=O)c2c(F)cccc2F)nc1-c1ccc(F)cc1F` + N.N.[Cl][Pt][Cl] [cisplatin] (first compound 0.4 µM, partner dose 1.6 µM), which “cleaved PARP positive nuclei fraction” value (MZ2-MEL) is on record?
A: Its value is 102%.

Q: What about the “cleaved PARP positive nuclei fraction” value (MeWo) of the same compound?
A: Its value is 66.7%.

Q: And the “cleaved PARP positive nuclei fraction” value (RPMI7951)?
A: The value was 23.7%.

Q: And the “cleaved PARP positive nuclei fraction” value (RVH-421)?
A: Its value is 67.9%.

Q: And the “cleaved PARP positive nuclei fraction” value (SkMel28)?
A: The value was 93.1%.

Q: And the “cleaved PARP positive nuclei fraction” value (SkMel2)?
A: Its value is 86.7%.

Q: What about the “cleaved PARP positive nuclei fraction” value (SkMel30) of the same compound?
A: The value was 109%.

Q: And the “cleaved PARP positive nuclei fraction” value (UACC62)?
A: The value was 122%.
